The supplement of paper PMC10849652
This is one part of the list.

Amino acid sequences for entries named in this document (tags omitted). A change or cut given only in a name is not applied to a line headed by its entry.
UniProt Q9BT81: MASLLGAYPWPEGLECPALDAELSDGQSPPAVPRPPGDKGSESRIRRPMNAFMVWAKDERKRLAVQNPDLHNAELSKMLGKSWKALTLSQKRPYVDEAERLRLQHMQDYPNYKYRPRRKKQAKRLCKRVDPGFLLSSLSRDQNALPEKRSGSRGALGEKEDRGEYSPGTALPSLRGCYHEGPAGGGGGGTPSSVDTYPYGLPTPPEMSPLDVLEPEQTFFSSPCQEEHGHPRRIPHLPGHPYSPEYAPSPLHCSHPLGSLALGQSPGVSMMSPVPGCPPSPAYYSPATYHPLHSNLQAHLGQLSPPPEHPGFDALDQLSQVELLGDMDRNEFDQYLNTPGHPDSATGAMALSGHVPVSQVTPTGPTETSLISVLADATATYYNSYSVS
UniProt P35712: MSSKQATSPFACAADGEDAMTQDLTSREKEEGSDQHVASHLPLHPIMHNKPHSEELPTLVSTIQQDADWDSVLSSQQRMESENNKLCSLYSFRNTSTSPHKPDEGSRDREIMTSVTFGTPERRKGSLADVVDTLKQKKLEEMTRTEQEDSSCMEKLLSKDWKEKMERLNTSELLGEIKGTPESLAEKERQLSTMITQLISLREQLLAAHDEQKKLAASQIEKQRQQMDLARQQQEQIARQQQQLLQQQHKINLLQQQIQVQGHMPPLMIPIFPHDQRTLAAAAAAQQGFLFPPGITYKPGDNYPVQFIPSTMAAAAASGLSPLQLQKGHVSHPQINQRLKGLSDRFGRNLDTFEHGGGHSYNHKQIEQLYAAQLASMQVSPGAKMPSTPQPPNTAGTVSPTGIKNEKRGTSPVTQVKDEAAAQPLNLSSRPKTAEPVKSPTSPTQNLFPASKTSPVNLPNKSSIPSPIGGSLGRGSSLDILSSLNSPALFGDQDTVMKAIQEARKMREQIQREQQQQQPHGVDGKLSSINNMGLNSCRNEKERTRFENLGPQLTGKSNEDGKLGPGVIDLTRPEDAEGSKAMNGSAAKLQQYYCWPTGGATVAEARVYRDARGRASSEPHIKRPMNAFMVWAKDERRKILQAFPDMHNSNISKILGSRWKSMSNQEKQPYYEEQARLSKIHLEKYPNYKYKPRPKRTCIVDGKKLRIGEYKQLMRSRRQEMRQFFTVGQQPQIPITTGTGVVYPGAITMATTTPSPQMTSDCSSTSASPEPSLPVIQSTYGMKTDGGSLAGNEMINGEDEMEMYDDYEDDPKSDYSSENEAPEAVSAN
UniProt O60749: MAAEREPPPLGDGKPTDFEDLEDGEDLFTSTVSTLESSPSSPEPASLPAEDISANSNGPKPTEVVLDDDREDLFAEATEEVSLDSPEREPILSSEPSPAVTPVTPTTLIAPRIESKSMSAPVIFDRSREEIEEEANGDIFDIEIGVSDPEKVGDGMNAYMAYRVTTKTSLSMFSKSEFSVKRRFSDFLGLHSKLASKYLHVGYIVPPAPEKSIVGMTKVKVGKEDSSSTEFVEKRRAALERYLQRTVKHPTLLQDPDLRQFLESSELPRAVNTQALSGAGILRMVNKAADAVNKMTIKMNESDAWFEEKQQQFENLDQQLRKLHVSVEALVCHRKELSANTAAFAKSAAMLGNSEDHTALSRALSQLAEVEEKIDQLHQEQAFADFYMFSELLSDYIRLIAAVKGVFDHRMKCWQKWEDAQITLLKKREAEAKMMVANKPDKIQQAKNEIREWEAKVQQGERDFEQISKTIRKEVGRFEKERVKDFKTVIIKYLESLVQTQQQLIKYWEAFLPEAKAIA
UniProt Q8TEQ0: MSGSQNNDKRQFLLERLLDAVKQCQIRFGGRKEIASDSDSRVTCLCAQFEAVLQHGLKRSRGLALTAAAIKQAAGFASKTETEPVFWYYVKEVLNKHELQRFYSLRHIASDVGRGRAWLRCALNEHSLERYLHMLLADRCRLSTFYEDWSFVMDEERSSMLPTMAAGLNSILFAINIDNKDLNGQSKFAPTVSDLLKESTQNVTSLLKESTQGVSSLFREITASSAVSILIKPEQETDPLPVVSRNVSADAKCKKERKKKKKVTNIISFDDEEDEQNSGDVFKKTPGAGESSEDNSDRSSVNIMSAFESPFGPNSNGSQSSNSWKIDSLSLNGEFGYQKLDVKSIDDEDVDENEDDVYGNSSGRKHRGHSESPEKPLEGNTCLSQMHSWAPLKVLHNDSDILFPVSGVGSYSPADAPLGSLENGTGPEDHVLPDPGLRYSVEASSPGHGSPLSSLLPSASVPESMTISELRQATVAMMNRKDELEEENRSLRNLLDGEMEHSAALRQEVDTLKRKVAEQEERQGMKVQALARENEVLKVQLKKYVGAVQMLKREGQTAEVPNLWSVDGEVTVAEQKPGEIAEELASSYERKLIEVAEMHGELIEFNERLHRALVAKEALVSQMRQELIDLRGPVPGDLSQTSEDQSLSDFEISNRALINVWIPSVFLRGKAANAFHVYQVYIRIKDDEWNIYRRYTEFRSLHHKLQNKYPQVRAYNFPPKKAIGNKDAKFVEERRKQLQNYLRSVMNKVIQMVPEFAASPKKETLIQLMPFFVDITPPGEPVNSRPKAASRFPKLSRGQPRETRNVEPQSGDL
UniProt Q5SQN1: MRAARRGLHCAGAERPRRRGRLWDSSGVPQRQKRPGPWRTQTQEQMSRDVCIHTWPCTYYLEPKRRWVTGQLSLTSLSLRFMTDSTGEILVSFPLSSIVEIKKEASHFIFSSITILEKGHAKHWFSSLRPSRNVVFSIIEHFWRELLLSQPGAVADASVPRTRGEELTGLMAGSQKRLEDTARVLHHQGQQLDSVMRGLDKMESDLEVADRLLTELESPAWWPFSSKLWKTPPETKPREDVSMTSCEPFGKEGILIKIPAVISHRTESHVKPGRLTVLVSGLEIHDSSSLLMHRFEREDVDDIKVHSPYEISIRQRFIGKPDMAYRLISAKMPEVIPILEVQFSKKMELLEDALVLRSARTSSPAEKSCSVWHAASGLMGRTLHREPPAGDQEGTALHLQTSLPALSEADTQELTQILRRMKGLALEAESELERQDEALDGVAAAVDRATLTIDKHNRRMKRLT
UniProt Q9Y5W8: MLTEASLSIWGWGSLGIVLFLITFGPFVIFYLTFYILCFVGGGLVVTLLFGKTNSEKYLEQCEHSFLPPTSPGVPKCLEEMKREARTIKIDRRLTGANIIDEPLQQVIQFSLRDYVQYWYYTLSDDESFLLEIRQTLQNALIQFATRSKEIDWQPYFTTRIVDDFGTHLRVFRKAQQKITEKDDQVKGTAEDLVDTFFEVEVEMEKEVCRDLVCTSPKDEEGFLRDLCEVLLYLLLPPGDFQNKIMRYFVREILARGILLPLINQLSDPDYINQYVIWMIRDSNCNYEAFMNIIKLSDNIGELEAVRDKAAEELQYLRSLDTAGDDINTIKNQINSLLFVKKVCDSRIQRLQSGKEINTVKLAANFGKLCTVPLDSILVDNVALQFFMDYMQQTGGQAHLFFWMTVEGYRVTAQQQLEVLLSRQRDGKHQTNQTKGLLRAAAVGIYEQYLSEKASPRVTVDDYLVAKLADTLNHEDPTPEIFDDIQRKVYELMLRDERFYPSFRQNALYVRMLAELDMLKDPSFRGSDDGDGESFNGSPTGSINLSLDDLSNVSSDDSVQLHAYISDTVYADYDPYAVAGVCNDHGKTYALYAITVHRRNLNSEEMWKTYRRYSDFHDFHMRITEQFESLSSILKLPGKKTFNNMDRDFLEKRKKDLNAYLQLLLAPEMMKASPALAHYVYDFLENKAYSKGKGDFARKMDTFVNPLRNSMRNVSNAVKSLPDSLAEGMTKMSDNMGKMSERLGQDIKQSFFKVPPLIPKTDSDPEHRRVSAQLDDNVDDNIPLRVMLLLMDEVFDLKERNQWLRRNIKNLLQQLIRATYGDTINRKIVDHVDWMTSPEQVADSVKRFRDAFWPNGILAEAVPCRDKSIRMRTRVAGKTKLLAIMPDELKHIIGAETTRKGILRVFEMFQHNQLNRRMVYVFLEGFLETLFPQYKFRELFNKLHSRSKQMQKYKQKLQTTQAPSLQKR
UniProt P0DJ93: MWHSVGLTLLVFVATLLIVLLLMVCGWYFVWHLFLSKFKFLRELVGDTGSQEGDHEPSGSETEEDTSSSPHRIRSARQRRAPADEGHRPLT
UniProt P0DMW3: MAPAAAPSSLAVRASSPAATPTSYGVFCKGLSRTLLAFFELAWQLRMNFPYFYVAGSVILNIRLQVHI
UniProt P18583: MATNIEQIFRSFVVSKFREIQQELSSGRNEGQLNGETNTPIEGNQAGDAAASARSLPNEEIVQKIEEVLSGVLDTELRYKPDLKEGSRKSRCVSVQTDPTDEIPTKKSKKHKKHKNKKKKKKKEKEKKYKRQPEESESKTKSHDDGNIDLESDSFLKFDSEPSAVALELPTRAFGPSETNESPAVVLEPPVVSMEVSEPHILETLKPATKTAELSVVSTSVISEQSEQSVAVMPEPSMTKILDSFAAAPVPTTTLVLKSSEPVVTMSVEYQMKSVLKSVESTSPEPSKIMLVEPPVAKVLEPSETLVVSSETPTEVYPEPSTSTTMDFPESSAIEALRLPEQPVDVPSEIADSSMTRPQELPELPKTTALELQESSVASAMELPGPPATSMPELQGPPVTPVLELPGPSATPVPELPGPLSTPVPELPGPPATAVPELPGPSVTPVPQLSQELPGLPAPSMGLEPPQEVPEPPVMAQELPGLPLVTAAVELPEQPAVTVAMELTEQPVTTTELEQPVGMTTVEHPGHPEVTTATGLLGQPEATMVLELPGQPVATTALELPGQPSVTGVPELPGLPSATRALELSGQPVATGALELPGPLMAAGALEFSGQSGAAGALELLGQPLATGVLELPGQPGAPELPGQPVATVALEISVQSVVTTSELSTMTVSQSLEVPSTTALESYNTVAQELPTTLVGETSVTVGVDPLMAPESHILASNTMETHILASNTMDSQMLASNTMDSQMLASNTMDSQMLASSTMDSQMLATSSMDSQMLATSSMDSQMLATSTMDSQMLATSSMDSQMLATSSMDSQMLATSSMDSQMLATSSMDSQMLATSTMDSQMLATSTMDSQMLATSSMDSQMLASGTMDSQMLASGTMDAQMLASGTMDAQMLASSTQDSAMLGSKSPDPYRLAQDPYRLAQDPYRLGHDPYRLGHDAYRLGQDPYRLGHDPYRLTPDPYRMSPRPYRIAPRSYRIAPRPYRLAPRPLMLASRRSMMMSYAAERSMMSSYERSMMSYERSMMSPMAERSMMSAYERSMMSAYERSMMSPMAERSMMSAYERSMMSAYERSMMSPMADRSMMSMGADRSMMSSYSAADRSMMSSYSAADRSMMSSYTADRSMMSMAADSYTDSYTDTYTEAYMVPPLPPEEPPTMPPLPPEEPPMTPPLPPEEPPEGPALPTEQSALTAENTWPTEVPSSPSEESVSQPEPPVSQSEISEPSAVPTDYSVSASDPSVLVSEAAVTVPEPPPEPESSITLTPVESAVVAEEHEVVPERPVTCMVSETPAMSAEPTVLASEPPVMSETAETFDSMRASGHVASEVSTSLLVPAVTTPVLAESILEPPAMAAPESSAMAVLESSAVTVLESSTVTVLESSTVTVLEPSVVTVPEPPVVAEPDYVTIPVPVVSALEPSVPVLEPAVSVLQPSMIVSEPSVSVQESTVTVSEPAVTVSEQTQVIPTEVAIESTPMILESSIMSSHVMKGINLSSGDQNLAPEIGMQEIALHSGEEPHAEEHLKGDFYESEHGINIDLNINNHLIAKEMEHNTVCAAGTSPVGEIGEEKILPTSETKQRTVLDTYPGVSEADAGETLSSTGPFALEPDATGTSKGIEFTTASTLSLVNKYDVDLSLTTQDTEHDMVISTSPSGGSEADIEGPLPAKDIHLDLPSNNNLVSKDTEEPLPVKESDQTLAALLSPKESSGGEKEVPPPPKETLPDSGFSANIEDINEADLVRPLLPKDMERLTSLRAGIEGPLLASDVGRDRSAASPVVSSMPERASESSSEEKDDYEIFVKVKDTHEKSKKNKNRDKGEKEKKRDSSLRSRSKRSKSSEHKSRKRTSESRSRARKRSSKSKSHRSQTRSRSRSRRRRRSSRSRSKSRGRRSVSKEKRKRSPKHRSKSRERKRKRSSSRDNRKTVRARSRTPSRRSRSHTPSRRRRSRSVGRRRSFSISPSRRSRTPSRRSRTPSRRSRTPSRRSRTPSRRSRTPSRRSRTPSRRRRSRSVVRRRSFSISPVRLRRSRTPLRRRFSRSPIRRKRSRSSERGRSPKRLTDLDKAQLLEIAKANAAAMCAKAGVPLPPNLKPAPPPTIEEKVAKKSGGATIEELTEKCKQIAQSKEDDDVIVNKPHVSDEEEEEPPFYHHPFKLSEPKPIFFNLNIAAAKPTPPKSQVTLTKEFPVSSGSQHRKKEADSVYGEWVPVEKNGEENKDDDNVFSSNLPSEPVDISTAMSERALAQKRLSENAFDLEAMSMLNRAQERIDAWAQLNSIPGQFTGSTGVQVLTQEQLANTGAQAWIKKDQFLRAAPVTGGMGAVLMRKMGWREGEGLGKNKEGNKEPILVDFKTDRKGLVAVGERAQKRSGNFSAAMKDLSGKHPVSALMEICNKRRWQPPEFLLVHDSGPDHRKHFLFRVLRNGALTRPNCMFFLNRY

Experiments:
Experiment in all cases: log2 fold change, soluble protein after heating vs DMSO (PISA); higher = thermal stabilisation; K562 lysate, 10 uM; active = over 0.2 and 3.5 SD of the protein, either way, in both replicates (recomputed)
[1] = compound: CCCS(=O)(=O)Nc1ccc(F)c(C(=O)c2c[nH]c3ncc(-c4ccc(Cl)cc4)cc23)c1F [vemurafenib]
In short: (§1)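 Thermal stability, expressed as log-two fold change relative to solvent controls, is given from duplicates. Crude K562 extract in PBS pH 7.4 with 1 mM MgCl2, at 1 mg/mL protein, was treated with 10 μM compound for 30 min and heated in aliquots for 3 min across 48°C-58°C. After pooling, adjustment to 0.5% NP-40 at 4°C and centrifugation at 21,000xg for 90 min, supernatant protein was measured by TMTpro 16plex LC-MS/MS with channel sums equalised.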

[2] = compound: CCN(CCCOc1ccc2c(Nc3cc(CC(=O)Nc4cccc(F)c4)[nH]n3)ncnc2c1)CCOP(=O)(O)O [barasertib]
In short: as §1

[3] = compound: CCn1c(C(=O)N(C2CC2)C2CC2)cc2c3c(ncn3C)c(Nc3cc(C)n(C)n3)nc21
In short: as §1

[4] = compound: CCn1cc(-c2ccnc3[nH]c(-c4cccc(CN(C)C)c4)cc23)c(-c2ccc(NC(=O)N(C)C)cc2)n1
In short: as §1

[5] = compound: CN1CCC(CNc2ccc3ncc(-c4cccc(OC(F)(F)F)c4)n3n2)CC1
In short: as §1

[6] = compound: CCCS(=O)(=O)Nc1ccc(F)c(C(=O)c2c[nH]c3ncc(Cl)cc23)c1F
In short: as §1

[7] = compound: CC[C@@H]1C(=O)N(C)c2cnc(Nc3ccc(C(=O)NC4CCN(C)CC4)cc3OC)nc2N1C1CCCC1
In short: as §1

[8] = compound: CC[C@@H]1C(=O)N(C)c2cnc(Nc3ccc(C(=O)N[C@H]4CC[C@H](N5CCN(CC6CC6)CC5)CC4)cc3OC)nc2N1C(C)C [volasertib]
In short: as §1

[9] = compound: CN1CCN(CCOc2cc(OC3CCOCC3)c3c(Nc4c(Cl)ccc5c4OCO5)ncnc3c2)CC1 [saracatinib]
In short: as §1

[10] = compound: CN1CCN(c2nc(C3=C(c4c[nH]c5ccccc45)C(=O)NC3=O)c3ccccc3n2)CC1 [sotrastaurin]
In short: as §1

Measured: log2 fold change

SOX7 isoform 2 (UniProt Q9BT81)
inactive: [1] -0.013 | [2] -0.04 | [3] 0.114 | [4] 0.238 | [5] -0.081

SP3 (UniProt Q02447)
inactive: [6] 0.012 | [2] 0.065 | [7] 0.054 | [8] 0.027 | [3] -0.009 | [4] 0.052 | [5] -0.068 | [9] 0.047 | [10] -0.136

SOX6 (UniProt P35712)
inactive: [1] -0.058 | [2] 0.145 | [7] 0.06 | [3] 0.053 | [4] -0.042 | [5] 0.075 | [9] -0.085 | [10] 0.033

SOD3 (UniProt P08294)
inactive: [1] 0.064 | [6] -0.062 | [2] -0.131 | [7] 0.055 | [8] -0.009 | [4] 0.071 | [5] 0.023

SMDT1 (UniProt Q9H4I9)
inactive: [6] -0.011 | [2] -0.054 | [8] 0.035 | [3] -0.051 | [4] -0.101 | [5] 0.006 | [9] 0.033

SNRPD2 (UniProt K7EJB5)
inactive: [1] 0.061 | [6] -0.029 | [7] -0.085 | [8] 0.026 | [3] 0.112 | [9] -0.049 | [10] 0.112

SMIM20 isoform 2 (UniProt Q8N5G0)
inactive: [1] 0.112 | [6] 0.027 | [2] 0.111 | [8] 0.042 | [4] 0.112 | [5] -0.051 | [9] -0.008 | [10] 0.122

SNAPC4 (UniProt Q5SXM2)
inactive: [1] 0.086 | [2] 0.02 | [7] -0.043 | [4] 0.002 | [5] -0.082

SNX2 isoform 2 (UniProt O60749)
inactive: [1] 0.275 | [6] 0.101 | [2] 0.021 | [7] 0.299 | [8] 0.048 | [3] -0.181 | [9] 0.009 | [10] -0.072

SNX29 (UniProt Q8TEQ0)
inactive: [7] 0.023 | [3] 0.213 | [4] 0.224 | [5] -0.328 | [10] -0.022

SMC4 (UniProt C9JJ64)
inactive: [2] 0.152

SNAP47 (UniProt Q5SQN1)
inactive: [2] -0.08 | [7] 0.132 | [3] -0.016 | [4] -0.437 | [5] 0.147 | [9] 0.021 | [10] -0.049

SMARCD3 (UniProt Q6STE5)
inactive: [9] -0.039

SMARCC2 isoform 3 (UniProt Q8TAQ2)
inactive: [6] 0.159 | [2] 0.132 | [8] 0.151 | [3] 0.043 | [9] -0.053 | [10] -0.059

SMARCA4 isoform 4 (UniProt P51532)
inactive: [6] -0.047 | [7] 0.049 | [8] 0.043 | [3] -0.192 | [4] -0.086 | [5] 0.057 | [9] 0.119 | [10] 0.325

SNX19 (UniProt Q92543)
inactive: [7] 0.058 | [3] -0.044 | [4] 0.092 | [5] -0.291 | [9] -0.159 | [10] -0.007

SMPD2 (UniProt O60906)
inactive: [6] 0.179 | [7] 0.051 | [8] 0.032 | [3] -0.017 | [4] -0.003 | [5] -0.104 | [9] 0.018

SMYD4 (UniProt Q8IYR2)
inactive: [3] -0.15 | [4] -0.18 | [5] 0.043 | [9] 0.366 | [10] 0.316

SNAPC2 (UniProt Q13487)
inactive: [2] -0.211 | [3] 0.04 | [4] 0.039 | [5] 0.048 | [9] 0.038 | [10] 0.154

SNX24 (UniProt Q9Y343)
inactive: [2] 0.215 | [7] -0.093 | [3] 0.138 | [4] -0.017 | [5] -0.084 | [9] 0.018 | [10] -0.028

SMIM26, A0A096LP01
inactive: [3] 0.033 | [4] 0.294 | [5] -0.424

SNX13 (UniProt Q9Y5W8)
inactive: [2] 0.102 | [3] -0.006 | [9] -0.03 | [10] 0.019

SOSTDC1 isoform 2 (UniProt Q6X4U4)
inactive: [9] -0.029

SNX33 (UniProt Q8WV41)
inactive: [2] -0.177 | [3] 0.185 | [9] -0.029 | [10] 0.016

SMIM4 (UniProt Q8WVI0)
inactive: [6] -0.147 | [2] -0.041 | [8] -0.057 | [3] -0.041 | [4] -0.231 | [5] -0.059 | [10] 0.021

SMIM13 (UniProt P0DJ93)
inactive: [10] 0.009

SMIM10L1 (UniProt P0DMW3)
inactive: [4] 0.097 | [5] -0.098

SPANXB1 (UniProt Q9NS25)
inactive: [4] -0.059 | [5] -0.043

SMIM19 (UniProt Q96E16)
inactive: [3] 0.064

SMPD1 (UniProt P17405)
inactive: [2] -0.112 | [3] 0.023 | [9] 0.042 | [10] 0.028

SNAPC3 (UniProt Q92966)
inactive: [2] 0.241 | [7] -0.098 | [4] 0.089 | [5] 0.087 | [9] 0.217 | [10] -0.197

SMR3B (UniProt P02814)
inactive: [7] -0.07 | [3] -0.064 | [4] 0.032 | [5] 0.094 | [10] -0.244

SNRNP25 (UniProt Q9BV90)
inactive: [2] -0.005 | [3] 0.014

Looked up one by one from the entries so far (two):
SNRNP25 (UniProt Q9BV90)
inactive: [2] -0.005 | [3] 0.014

SMIM19 (UniProt Q96E16)
inactive: [3] 0.064

(next part)

SON isoform 6 (UniProt P18583)
inactive: [3] 0.111

SMOX isoform 6 (UniProt Q9NWM0)
inactive: [6] 0.204 | [8] -0.089 | [9] 0.235

SMIM29 (UniProt Q86T20)
inactive: [6] 0.033 | [8] 0.063

SNX10 (UniProt Q9Y5X0)
inactive: [3] -0.06 | [9] -0.008 | [10] 0.063

SNRNP35 isoform 2 (UniProt Q16560)
inactive: [4] -0.288 | [5] 0.052 | [9] 0.132

SP2 (UniProt Q02086)
inactive: [2] 0.083 | [7] 0.098 | [9] -0.13 | [10] 0

SNAPC1 (UniProt Q16533)
inactive: [10] 0.137

SNRPA1 (UniProt H0YMA0)
inactive: [6] 0 | [8] 0.069

SNX25 (UniProt Q9H3E2)
inactive: [7] 0.111 | [3] 0.011 | [9] -0.013 | [10] 0.116
